Data published in patent US20210087231A1 (UNIVERSITY OF MARYLAND BALTIMORE, published 2021).
No constants are given. Whether binding was seen depends on the method and setting. Some entries that bind do so weakly or less than the wild type.

Chains of the proteins cited; added tags and fusions are not shown. Residues count along the entry.
UniProt Q99836, residues 155-296: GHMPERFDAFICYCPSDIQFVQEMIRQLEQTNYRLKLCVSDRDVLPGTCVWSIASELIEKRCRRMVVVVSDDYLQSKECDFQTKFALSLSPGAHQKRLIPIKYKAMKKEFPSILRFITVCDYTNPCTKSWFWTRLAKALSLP

T1: TLR9 TIR-Cer (UniProt Q9NR96)
T1 sequence (looked up): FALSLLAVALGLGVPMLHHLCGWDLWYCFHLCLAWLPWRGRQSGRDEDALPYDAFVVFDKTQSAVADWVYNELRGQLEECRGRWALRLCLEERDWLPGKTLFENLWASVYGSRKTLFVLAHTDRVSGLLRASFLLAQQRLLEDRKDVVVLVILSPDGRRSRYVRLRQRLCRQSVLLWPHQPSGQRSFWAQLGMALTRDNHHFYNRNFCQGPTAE


Key:
[1] = target: T2, MyD88-Cer (UniProt Q99836 155-296); test: FRET-FLIM in HeLa cells (FIG. 13)
T2 construct: The vector is 'described previously'; Expressed in HeLa cells; also called MyD88 TIR-Cer; Cer-labeled MyD88 TIR; not shown: Cerulean fluorescent protein (Cer)

[2] = target: T1, TLR9 TIR-Cer; test: FRET-FLIM in HeLa cells (FIG. 13)
[3] = target: T2, MyD88-Cer; test: FRET-FLIM in HeLa cells expressing MyD88-Cer
[4] = target: T2, MyD88-Cer; test: FRET-FLIM in HeLa cells (FIG. 11, 12, 13)
[5] = target: T2, MyD88-Cer; test: FRET-FLIM in HeLa cells
[6] = target: T1, TLR9 TIR-Cer; test: FRET-FLIM in HeLa cells
[7] = target: T1, TLR9 TIR-Cer; test: FLIM images of HeLa cells, TLR9/TIR-Cer+9R34-ΔN (FIG. 11B)
[8] = target: T1, TLR9 TIR-Cer; test: cell-based FRET-FLIM binding assay

binding [1]	binding [2]	binding [3]	binding [4]	binding [5]	binding [6]	binding [7]	binding [8]	Binder
binds	binds	binds	binds	binds	binds			RQIKIWFQNRRMKWKKRSFWAQLGMALTRD (Cy3 label at the peptide N-terminus) [Cy3-9R11]
	binds				binds	binds	binds	RQIKIWFQNRRMKWKKALRLCLEERD (Cy3 label at the peptide N-terminus) [Cy3-9R34-ΔN]
